Assay results as given in the supplement of paper PMC9233669.
Variants at the background level are over-represented here.

Assays:
[1] = test system: biotinyl-Val-oxazolone; assay: self-aminoacylation, catalytic enhancement (BVO) (fold over background); higher = more active; k-Seq, kA / k0A0; sequences stand for … in GGGAAUGGAUCCACAUCUACGAAUUC…UUCACUGCAGACUUGACGAAGCUG
How it was run: (§1)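 Catalytic enhancement equals the median kA over the uncatalyzed rate, the latter read from the low-activity peak of a bimodal Gaussian fit. Values of kA came from fitting each sequence's fraction reacted to a pseudo-first-order model, with 1000 bootstraps. Reacted RNA was captured with streptavidin and quantified by triplicate qPCR and Illumina sequencing after 90 minutes at room temperature with 2–1250 μM biotinyl-aminoacyl-oxazolone and 0.43 μM mutagenized RNA pools bearing a 21-nt variable region.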

[2] = test system: biotinyl-Ile-oxazolone; assay: self-aminoacylation, catalytic enhancement (BIO) (fold over background); higher = more active; k-Seq, kA / k0A0; sequences stand for … in GGGAAUGGAUCCACAUCUACGAAUUC…UUCACUGCAGACUUGACGAAGCUG
How it was run: as §1

[3] = test system: biotinyl-Met-oxazolone; assay: self-aminoacylation, catalytic enhancement (BMO) (fold over background); higher = more active; k-Seq, kA / k0A0; sequences stand for … in GGGAAUGGAUCCACAUCUACGAAUUC…UUCACUGCAGACUUGACGAAGCUG
How it was run: as §1

Sequence | self-aminoacylation [1] | self-aminoacylation [2] | self-aminoacylation [3]
AACUUUGCUAACAGUCGCAAG [Fam3.1 aminoacylation ribozyme variant] | 1.95 |  | 
AACUUUGCUCAUAGUCGCAAG [Fam3.1 aminoacylation ribozyme variant] | 1.91 |  | 
AAGUCUGCUAAUAGUCACAAG [Fam3.1 aminoacylation ribozyme variant] | 1.25 | 1.24 | 1.95
AAGUUUGCUAAUAGUAGCAAU [Fam3.1 aminoacylation ribozyme variant] | 1.32 | 1.32 | 1.57
AAUACCCUGUUCAUCGAGUGA [Fam2.1 aminoacylation ribozyme variant] |  | 1.85 | 
AGGUUUGCUAGUAGUCGCAAG [Fam3.1 aminoacylation ribozyme variant] | 0.894 | 0.918 | 
AGUACCCUGGUCAUCGAUUGA [Fam2.1 aminoacylation ribozyme variant] | 0.981 | 1.09 | 
AUCACCCUGGUCAUCAAGUGA [Fam2.1 aminoacylation ribozyme variant] |  | 1.74 | 
AUCACCCUGGUCAUCGAGUGC [Fam2.1 aminoacylation ribozyme variant] | 1.54 | 1.56 | 
AUCACCCUGGUCAUCGAGUUA [Fam2.1 aminoacylation ribozyme variant] | 1.74 | 1.78 | 
AUGACCCUGGUCAUCAAGUGA [Fam2.1 aminoacylation ribozyme variant] | 1.46 | 1.3 | 
AUGCACCUAGGUCAUCGGGAG [Fam2.2 aminoacylation ribozyme variant] | 1.51 | 1.56 | 
AUUAACCUAGGUCAUCGCGUG [Fam2.2 aminoacylation ribozyme variant] | 4.66 | 4.57 | 
AUUAACCUAGUUCAUCGGGUG [Fam2.2 aminoacylation ribozyme variant] | 1.6 | 1.78 | 
AUUACCCGAGUCAUCGAGUGA [Fam2.1 aminoacylation ribozyme variant] | 4.68 | 4.27 | 8.55
AUUACCCUGAUCAGCGAGUGA [Fam2.1 aminoacylation ribozyme variant] |  | 1.94 | 
AUUACCCUGAUCGUCGAGUGA [Fam2.1 aminoacylation ribozyme variant] | 0.862 | 0.89 | 0.75
AUUACCCUGGACACCGAGUGA [Fam2.1 aminoacylation ribozyme variant] | 1.83 | 2.15 | 4.14
AUUACCCUGGUCAUCGAGGUA [Fam2.1 aminoacylation ribozyme variant] | 3.16 | 2.38 | 
AUUACCCUGGUCAUCGUGCGA [Fam2.1 aminoacylation ribozyme variant] | 1.92 | 1.81 | 1.58

Sequence | self-aminoacylation [1] | self-aminoacylation [2] | self-aminoacylation [3]
AUUACCCUGGUCAUCUCGUGA [Fam2.1 aminoacylation ribozyme variant] | 1.55 | 1.43 | 
AUUACCCUGGUCCUGGAGUGA [Fam2.1 aminoacylation ribozyme variant] | 1.79 |  | 
AUUACCCUGGUCGUGGAGUGA [Fam2.1 aminoacylation ribozyme variant] | 1.26 | 1.45 | 
AUUACCCUUGUCAUCGUGUGA [Fam2.1 aminoacylation ribozyme variant] | 1.7 | 1.45 | 
AUUACUCUGGCCAUCGAGUGA [Fam2.1 aminoacylation ribozyme variant] | 1.66 |  | 
AUUACUCUGUUCAUCGAGUGA [Fam2.1 aminoacylation ribozyme variant] | 1.94 | 1.9 | 
AUUCACCAAGGUUAUCGGGUG [Fam2.2 aminoacylation ribozyme variant] | 4.4 | 4.45 | 7.8
AUUCACCUAGAUCAUAGGGUG [Fam2.2 aminoacylation ribozyme variant] |  | 1.98 | 
AUUCACCUAGGACAUCGGGUA [Fam2.2 aminoacylation ribozyme variant] | 1.96 |  | 
AUUCACCUAGGUAACCGGGUG [Fam2.2 aminoacylation ribozyme variant] | 1.62 | 1.57 | 
AUUCACCUAGGUCAUCGCGUG [Fam2.2 aminoacylation ribozyme variant] | 7.35 | 7.1 | 
AUUCACCUAGGUCAUCGGCUC [Fam2.2 aminoacylation ribozyme variant] | 2.22 | 2.5 | 2.14
AUUCACCUGGGUCCUCGGGUG [Fam2.2 aminoacylation ribozyme variant] |  | 4.33 | 
AUUCACCUUGGUCAUCGAGUG [Fam2.2 aminoacylation ribozyme variant] | 2.49 | 2.69 | 
AUUCACCUUGGUCAUCUGGUG [Fam2.2 aminoacylation ribozyme variant] |  | 1.91 | 
AUUCACGUAGGUCAGCGGGUG [Fam2.2 aminoacylation ribozyme variant] | 2.48 | 2.48 | 2.52
AUUCACGUAGGUCAUCGAGUG [Fam2.2 aminoacylation ribozyme variant] | 1.89 | 1.88 | 2.92
AUUCUCCCAGGUCAUCGGGUG [Fam2.2 aminoacylation ribozyme variant] | 6.91 | 6.87 | 
AUUUCCCUGGUCAUCAAGUGA [Fam2.1 aminoacylation ribozyme variant] | 1.7 | 1.53 | 1.95
CAACUUCAAACAAUCGGUCGG [Fam1A.1 aminoacylation ribozyme variant] | 1.69 | 1.78 | 

Sequence | self-aminoacylation [1] | self-aminoacylation [2] | self-aminoacylation [3]
CCACACUUCAAUCAAUCGGCC [Fam1B.1 aminoacylation ribozyme variant] |  | 1.81 | 1.39
CCACACUUCAUCCAAUCGGUC [Fam1B.1 aminoacylation ribozyme variant] | 0.912 | 0.883 | 
CCACACUUCAUGCAAUCGGUA [Fam1B.1 aminoacylation ribozyme variant] |  | 0.681 | 
CCACACUUCCAGCAAUCGUUC [Fam1B.1 aminoacylation ribozyme variant] | 1.05 | 1.09 | 
CCACCCUUCAAGCAAUCGGUA [Fam1B.1 aminoacylation ribozyme variant] | 1.6 | 1.4 | 1.38
CCACUUCAAACAAUCGGUCGG [Fam1A.1 aminoacylation ribozyme variant] | 1.55 | 1.69 | 1.38
CCAGACGUCAAGCAAUCGGUC [Fam1B.1 aminoacylation ribozyme variant] | 1.99 | 1.24 | 1.52
CCAGACUUCAAGCAAUCCGUC [Fam1B.1 aminoacylation ribozyme variant] | 1.58 | 1.67 | 1.47
CCUCGCUUCAAGCAAUCGGUC [Fam1B.1 aminoacylation ribozyme variant] | 1.33 | 1.14 | 1.35
CGACUUCAAACAAUCGGUUUG [Fam1A.1 aminoacylation ribozyme variant] | 1.65 | 1.61 | 1.44
CUACCUCAACCAAUCGGUCUG [Fam1A.1 aminoacylation ribozyme variant] | 0.891 | 0.766 | 
CUACUUCAAAGAAUCGGCCUG [Fam1A.1 aminoacylation ribozyme variant] | 1.73 | 1.52 | 1.38
CUACUUCAAAGUAUCGGUCUG [Fam1A.1 aminoacylation ribozyme variant] | 0.975 | 0.979 | 0.824
CUAUUUCAAACAAUCGGUCUA [Fam1A.1 aminoacylation ribozyme variant] | 0.588 | 0.713 | 
CUGCUUCAAACAAUCGGUGUG [Fam1A.1 aminoacylation ribozyme variant] | 1.8 | 1.92 | 
CUUCUGCAAACAAUCGGUCUG [Fam1A.1 aminoacylation ribozyme variant] | 0.889 | 0.957 | 
GCACUCUUCAAGCAAUCGGUC [Fam1B.1 aminoacylation ribozyme variant] | 1.59 | 1.75 | 1.38
GUUACCCUGGUCGUCGAGUGA [Fam2.1 aminoacylation ribozyme variant] | 1.6 | 1.5 | 
UAACUUCAAACAAUCGGUCUG [Fam1A.1 aminoacylation ribozyme variant] | 1.54 | 1.38 | 1.52
